PubChem BioAssay AID686938 | Drosophila RNAi Screening Center – 2013
Assay: 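Looking for CRAC channel components and the factors controlling them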 (primary screen). Cells: Drosophila S2R+ cells. Reagent: long dsRNA against Drosophila genes, about 0.25 µg dsRNA per well, roughly 10,000 cells. Time to read-out: 5 days of knock-down before the calcium assay. Treatment: thapsigargin (SERCA pump blocker) to empty calcium stores; entry signal taken 4 min after adding it. Read-out: 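Per-well fluo-4 fluorescence in two replicates, unnormalised, measured in resting cells and 4 min after store depletion by the SERCA blocker thapsigargin; ratio of the two present in few wells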. Reading the numbers: calcium entry signal: higher = stronger calcium signal after store depletion; entry to resting ratio: higher = more calcium entry relative to resting level; resting calcium signal: higher = higher resting calcium signal. Rule for the call: 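Hit if the duplicate-averaged plate z-score for entry over resting signal is under −3; wells with weak total dye signal (Fmax z < −2) or more than 5 off-targets removed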. Meaning of the calls: active = strongly reduced calcium entry; inactive = no strong reduction.
The deposit covers about 23,000 reagents; shown is a random part of those with a known target gene and a result. Over the whole deposit, 75 (0.33%) were called active. 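Raw plate signals without normalisation; calls rest on plate z-scores that were not deposited; ratio present for only 364 wells.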 A plus sign joins genes that one reagent is predicted to hit. Reagent sequences are not shown. Not stated in the record: the dose of the treatment.

CG42697 [DRSC05740] scored calcium entry signal, replicate 1 (fluorescence units) = 3.20e7; calcium entry signal, replicate 2 (fluorescence units) = 3.42e7; resting calcium signal, replicate 1 (fluorescence units) = 1.48e7; resting calcium signal, replicate 2 (fluorescence units) = 1.71e7; inactive.
After knock-down of Uqcc1 + CG9948 [DRSC09690], the screen gave calcium entry signal, replicate 1 (fluorescence units) = 3.27e7; calcium entry signal, replicate 2 (fluorescence units) = 4.89e7; resting calcium signal, replicate 1 (fluorescence units) = 1.54e7; resting calcium signal, replicate 2 (fluorescence units) = 1.97e7; inactive.
Silencing of cbc [DRSC06957] gave: calcium entry signal, replicate 1 (fluorescence units) = 2.37e7; calcium entry signal, replicate 2 (fluorescence units) = 2.66e7; resting calcium signal, replicate 1 (fluorescence units) = 1.04e7; resting calcium signal, replicate 2 (fluorescence units) = 1.20e7; inactive.
With knock-down of slou [DRSC17058], the screen gave calcium entry signal, replicate 1 (fluorescence units) = 3.23e7; calcium entry signal, replicate 2 (fluorescence units) = 3.86e7; resting calcium signal, replicate 1 (fluorescence units) = 5.24e7; resting calcium signal, replicate 2 (fluorescence units) = 1.72e7; inactive.
For CG2129 [DRSC18209], the entry reads calcium entry signal, replicate 1 (fluorescence units) = 2.63e7; calcium entry signal, replicate 2 (fluorescence units) = 2.42e7; resting calcium signal, replicate 1 (fluorescence units) = 1.14e7; resting calcium signal, replicate 2 (fluorescence units) = 1.08e7; inactive.
Depletion of CG13692 [DRSC00361] came out at: calcium entry signal, replicate 1 (fluorescence units) = 3.85e7; calcium entry signal, replicate 2 (fluorescence units) = 3.61e7; resting calcium signal, replicate 1 (fluorescence units) = 1.84e7; resting calcium signal, replicate 2 (fluorescence units) = 1.63e7; inactive.
After knock-down of CG1421 [DRSC03707] the results were calcium entry signal, replicate 1 (fluorescence units) = 3.03e7; calcium entry signal, replicate 2 (fluorescence units) = 4.62e7; resting calcium signal, replicate 1 (fluorescence units) = 1.52e7; resting calcium signal, replicate 2 (fluorescence units) = 2.04e7; inactive.
Knock-down of CG12278 [DRSC14494] came out at: calcium entry signal, replicate 1 (fluorescence units) = 1.75e7; calcium entry signal, replicate 2 (fluorescence units) = 2.86e7; resting calcium signal, replicate 1 (fluorescence units) = 1.13e7; resting calcium signal, replicate 2 (fluorescence units) = 7.32e7; inactive.
Knock-down of Pburs [DRSC02483] came out at: calcium entry signal, replicate 1 (fluorescence units) = 5.58e7; calcium entry signal, replicate 2 (fluorescence units) = 2.95e7; resting calcium signal, replicate 1 (fluorescence units) = 2.45e7; resting calcium signal, replicate 2 (fluorescence units) = 1.50e7; inactive.
With knock-down of pes [DRSC03033] the results were calcium entry signal, replicate 1 (fluorescence units) = 2.98e7; calcium entry signal, replicate 2 (fluorescence units) = 3.90e7; resting calcium signal, replicate 1 (fluorescence units) = 1.28e7; resting calcium signal, replicate 2 (fluorescence units) = 1.68e7; inactive.
Against CG15706 [DRSC06577], the values are calcium entry signal, replicate 1 (fluorescence units) = 3.94e7; calcium entry signal, replicate 2 (fluorescence units) = 4.14e7; resting calcium signal, replicate 1 (fluorescence units) = 1.62e7; resting calcium signal, replicate 2 (fluorescence units) = 1.86e7; inactive.
With knock-down of Rsph9 [DRSC01594], the record shows calcium entry signal, replicate 1 (fluorescence units) = 3.62e7; calcium entry signal, replicate 2 (fluorescence units) = 3.98e7; resting calcium signal, replicate 1 (fluorescence units) = 1.93e7; resting calcium signal, replicate 2 (fluorescence units) = 1.95e7; inactive.
For dom [DRSC04558], the values are calcium entry signal, replicate 1 (fluorescence units) = 3.41e7; resting calcium signal, replicate 1 (fluorescence units) = 2.60e7; active.
For dom [DRSC04559] the deposit lists calcium entry signal, replicate 1 (fluorescence units) = 2.75e7; calcium entry signal, replicate 2 (fluorescence units) = 3.53e7; resting calcium signal, replicate 1 (fluorescence units) = 1.62e7; resting calcium signal, replicate 2 (fluorescence units) = 2.03e7; inactive.
Against CG13362 [DRSC17897], the values are calcium entry signal, replicate 1 (fluorescence units) = 5.01e7; calcium entry signal, replicate 2 (fluorescence units) = 4.62e7; entry to resting ratio 2.1; resting calcium signal, replicate 1 (fluorescence units) = 2.41e7; resting calcium signal, replicate 2 (fluorescence units) = 2.06e7; inactive.
With knock-down of CG11170 [DRSC04090], the screen gave calcium entry signal, replicate 1 (fluorescence units) = 3.18e7; resting calcium signal, replicate 1 (fluorescence units) = 1.64e7; inactive.
Depletion of Or45a [DRSC07487] came out at: calcium entry signal, replicate 1 (fluorescence units) = 4.10e7; calcium entry signal, replicate 2 (fluorescence units) = 4.15e7; resting calcium signal, replicate 1 (fluorescence units) = 1.97e7; resting calcium signal, replicate 2 (fluorescence units) = 1.70e7; inactive.
Silencing of CG6873 [DRSC20014] gave: calcium entry signal, replicate 1 (fluorescence units) = 1.30e7; calcium entry signal, replicate 2 (fluorescence units) = 2.98e7; resting calcium signal, replicate 1 (fluorescence units) = 8.02e6; resting calcium signal, replicate 2 (fluorescence units) = 1.50e7; inactive.
CG9757 [DRSC16557] scored calcium entry signal, replicate 1 (fluorescence units) = 3.54e7; calcium entry signal, replicate 2 (fluorescence units) = 4.69e7; resting calcium signal, replicate 1 (fluorescence units) = 1.71e7; resting calcium signal, replicate 2 (fluorescence units) = 6.55e7; inactive.
CG9757 [DRSC21707] gave calcium entry signal, replicate 1 (fluorescence units) = 3.39e7; calcium entry signal, replicate 2 (fluorescence units) = 3.17e7; resting calcium signal, replicate 1 (fluorescence units) = 1.86e7; resting calcium signal, replicate 2 (fluorescence units) = 1.63e7; inactive.
Silencing of Reck [DRSC10504] gave: calcium entry signal, replicate 1 (fluorescence units) = 4.11e7; calcium entry signal, replicate 2 (fluorescence units) = 4.72e7; resting calcium signal, replicate 1 (fluorescence units) = 1.89e7; resting calcium signal, replicate 2 (fluorescence units) = 3.09e7; inactive.
Depletion of Reck [DRSC10505] resulted in: calcium entry signal, replicate 1 (fluorescence units) = 4.38e7; calcium entry signal, replicate 2 (fluorescence units) = 5.05e7; resting calcium signal, replicate 1 (fluorescence units) = 1.97e7; resting calcium signal, replicate 2 (fluorescence units) = 1.80e7; inactive.

Records listed so far whose gene name starts with D or d (2):
dom [DRSC04558]: calcium entry signal, replicate 1 (fluorescence units) = 3.41e7; resting calcium signal, replicate 1 (fluorescence units) = 2.60e7; outcome = active
dom [DRSC04559]: calcium entry signal, replicate 1 (fluorescence units) = 2.75e7; calcium entry signal, replicate 2 (fluorescence units) = 3.53e7; resting calcium signal, replicate 1 (fluorescence units) = 1.62e7; resting calcium signal, replicate 2 (fluorescence units) = 2.03e7; outcome = inactive
